Measured values as given in PubChem BioAssay AID445 (National Center for Advancing Translational Sciences (NCATS), 2006).
This is one part of the list. Shown are side measurements of this screen, not its main read-out; they come without a call. Most of these compounds were active or inconclusive in the main read-out, so they are no random draw. The note in brackets gives the kind of curve behind each potency; many fits are weak.

Test: IkB Signaling
Conditions: ABC-DLBCL IkBa-CBG/CBR dual luciferase ratio (green luciferase fused to IkBa over red control in OCI-Ly3 lymphoma cells), 4 h
Outline: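 Luminescence ratio of IκBα-fused green versus native red beetle luciferase in OCI-Ly3 cells, 4 h post-doxycycline with compound; red signal alone, scaled from basal (0%) to zero light (-100%), flagged nonspecific or cytotoxic effects.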

[1] = measured here: control luc red channel unless noted

With `CCc1ccc2oc(C(=O)Nc3cc(C)ccc3C)cc(=O)c2c1` as the compound, how does the AC50 [1] read?
Its AC50 is 0.398 µM [falling, partial curve].

Which AC50 [1] does the source give for `CC(C)c1nn2c(=O)cc(COC(=O)c3ccccc3NC(=O)C3CCCCC3)nc2s1` here?
Its AC50 is 39.8 µM [falling, single point].

With `CC1Cc2ccccc2N1C(=O)CSc1nnc(-c2ccccc2Cl)o1` (centres undefined) as the compound, how does the AC50 [1] read?
The AC50 was 3.16 µM [falling, single point].

Which AC50 [1] does the source give for `CC1CCCCN1S(=O)(=O)c1ccc(C(=O)Nc2nnc(-c3cccs3)o2)cc1` (centres undefined) here?
The AC50 was 20 µM [falling, partial curve].

Which AC50 [1] does the source give for `Nc1nc(-c2nc3ccccc3[nH]2)cs1` here?
The AC50 was 12.6 µM [falling, partial curve].

With `Cc1ccc(NC(=O)Cn2ccn(-c3ccccc3)c(=O)c2=O)cc1` as the compound, how does the AC50 [1] read?
The AC50 was 20 µM [falling, single point].

With `CCOc1ccc(C2NC(=O)c3c(COC)cc(C)nc3N2Cc2ccccc2)cc1OC` (centres undefined) as the compound, how does the AC50 [1] read?
The AC50 was 0.316 µM [rising, full curve, poor fit].

Which AC50 [1] does the source give for `Cc1ccc(C)c(N2CCN(C(=O)c3ccc4c(c3)N(Cc3ccc(F)cc3)C(=O)c3ccccc3S4=O)CC2)c1` (centres undefined) here?
The AC50 was 3.98 µM [falling, partial curve].

With `CC1CCC(Nc2nc3c(-c4cccc(C(F)(F)F)c4)nnn3c3ccccc23)CC1` (centres undefined) as the compound, how does the AC50 [1] read?
Its AC50 is 20 µM [falling, partial curve].

For `COc1cc(OC)c(NC(=O)CCc2c(C)nc3cc(-c4ccccc4OC)nn3c2C)cc1Cl`, which AC50 [1] is on record?
The AC50 was 1 µM [falling, full curve].

Which AC50 [1] does the source give for `COCCOC(=O)c1cc(C(=O)c2cc(F)ccc2O)coc1=N` here?
Its AC50 is 10 µM [falling, partial curve].

With `O=C(Nc1cccc(-c2cn3ccsc3n2)c1)c1ccccc1` as the compound, how does the AC50 [1] read?
Its AC50 is 20 µM [falling, single point].

Which AC50 [1] does the source give for `COc1ccccc1-c1noc(CCC(=O)Nc2ccc(C)cc2C)n1` here?
The AC50 was 0.631 µM [falling, full curve].

For `Cc1cccc(N2CCn3c2nc2c3c(=O)n(CCc3ccccc3)c(=O)n2C)c1`, which AC50 [1] is on record?
The AC50 was 20 µM [falling, partial curve].

Which AC50 [1] does the source give for `N#CC1=C(N)N(c2cccc(Cl)c2)C2=C(C(=O)CCC2)C1c1cc(CN2CCOCC2)cs1` (centres undefined) here?
The AC50 was 39.8 µM [rising, partial curve, poor fit] [measured here: IkB-luc green channel].

Which AC50 [1] does the source give for `Cc1cccc(N2C(=O)CS(=O)(=O)C23C(=O)N(Cc2c(F)cccc2Cl)c2ccccc23)c1` (centres undefined) here?
The AC50 was 15.8 µM [falling, partial curve].

For `CSc1cccc(NC(=O)CN2CCN(Cc3ccccc3C)S2(=O)=O)c1`, which AC50 [1] is on record?
The AC50 was 39.8 µM [falling, single point].

Which AC50 [1] does the source give for `Cc1cc(N)c(-n2cc3c(c2-c2ccc(Br)cc2)c(=O)n(C)c(=O)n3C)cc1C` here?
The AC50 was 15.8 µM [falling, partial curve].

For `C=CCN(CC=C)S(=O)(=O)c1ccc2nc(NC(=O)C(C)C)sc2c1`, which AC50 [1] is on record?
The AC50 was 12.6 µM [falling, partial curve].

With `O=C(O)CCCNc1cc(N2CCN(C3CCCCC3)CC2)c2noc3c2c1C(=O)c1ccccc1-3` as the compound, how does the AC50 [1] read?
Its AC50 is 20 µM [falling, partial curve].

For `O=C(CSc1ncn[nH]1)Nc1nc(-c2ccccc2)ns1`, which AC50 [1] is on record?
The AC50 was 31.6 µM [falling, single point].

Which AC50 [1] does the source give for `Cc1ccc(-c2cc(-c3cccc(F)c3)n[nH]2)c(O)c1` here?
Its AC50 is 25.1 µM [falling, partial curve].

With `CCOC(=O)CC(=O)CSCC(=O)Nc1ccc(C)cc1` as the compound, how does the AC50 [1] read?
Its AC50 is 31.6 µM [falling, single point].

For `C=Cc1ccc(Cn2c(C)c(CNCCc3ccccc3C)c(C(=O)O)c2C)cc1`, which AC50 [1] is on record?
The AC50 was 25.1 µM [falling, single point].

Which AC50 [1] does the source give for `O=C(COc1ccc(Cl)cc1)Nc1ccc(C(=O)OCc2cc(=O)n3ccsc3n2)cc1` here?
The AC50 was 12.6 µM [falling, partial curve].

Which AC50 [1] does the source give for `FC(F)(F)Oc1ccc2c(c1)NC(c1ccncc1)=NC(c1cccs1)=N2` here?
Its AC50 is 39.8 µM [falling, single point].

With `Cc1ccc(NC(=O)CCSc2nc(-c3ccco3)cc(C(F)(F)F)n2)cc1F` as the compound, how does the AC50 [1] read?
Its AC50 is 12.6 µM [falling, partial curve].

With `O=C(Nc1nc(-c2ccccc2)cs1)C1CCCCN1S(=O)(=O)c1ccccc1` (centres undefined) as the compound, how does the AC50 [1] read?
The AC50 was 15.8 µM [falling, partial curve].

Which AC50 [1] does the source give for `C=CCc1cccc2cc(C(=O)Nc3ccc(F)cc3)c(=O)oc12` here?
The AC50 was 15.8 µM [falling, partial curve].

For `COc1ccc2oc(=O)c(C(=O)Nc3ccc(C(=O)O)cc3)cc2c1`, which AC50 [1] is on record?
The AC50 was 0.794 µM [falling, full curve].

For `COc1ccc(OCC(=O)Nc2nnc3n2CCS3)cc1`, which AC50 [1] is on record?
The AC50 was 0.1 µM [falling, full curve, poor fit].

For `O=C(Nc1ccc(Oc2ccccc2)cc1)c1ccco1`, which AC50 [1] is on record?
The AC50 was 12.6 µM [falling, single point].

With `CCOC(=O)N1CCN(Cc2nc3cc(NC(=O)c4ccc(OC)cc4)ccc3n2C(C)C)CC1` as the compound, how does the AC50 [1] read?
Its AC50 is 15.8 µM [falling, single point].

For `Nc1nonc1-c1nc2ccccc2n1Cc1cccc(Cl)c1`, which AC50 [1] is on record?
Its AC50 is 1 µM [rising, full curve, poor fit].

For `CC(C)c1ccc(NC(=O)c2ccc(F)c(S(=O)(=O)N3CCc4ccccc4C3)c2)cc1`, which AC50 [1] is on record?
The AC50 was 10 µM [falling, partial curve].

For `Cc1ccc(CN(C(=O)c2ccccc2F)c2ccccn2)o1`, which AC50 [1] is on record?
The AC50 was 25.1 µM [falling, single point].

With `O=C(c1cccn2c(=O)c3cc(Cl)ccc3nc12)N1CCN(c2ccccc2F)CC1` as the compound, how does the AC50 [1] read?
Its AC50 is 25.1 µM [falling, single point].

With `COc1ccc(Cl)cc1NC(=O)Cn1cc(C(=O)c2ccc(C)cc2)c(=O)c2ccc(C)nc21` as the compound, how does the AC50 [1] read?
The AC50 was 7.94 µM [falling, partial curve].

Which AC50 [1] does the source give for `CCOc1ccc(C(=O)Nc2cccc(C(=O)OCc3cc(=O)n4nc(C5CC5)sc4n3)c2)cc1` here?
The AC50 was 0.126 µM [falling, full curve].

For `CCOC(=O)c1ccccc1NC(=O)CSc1nc(=O)[nH]c2c1CCC2`, which AC50 [1] is on record?
Its AC50 is 12.6 µM [falling, single point].

For `COc1ccc(CCNC(=O)c2c(O)nc3ccccn3c2=O)cc1`, which AC50 [1] is on record?
The AC50 was 39.8 µM [falling, single point].

For `Cc1cc(NC(=O)C2CCN(S(=O)(=O)c3cccc4nsnc34)CC2)ccc1Br`, which AC50 [1] is on record?
Its AC50 is 2 µM [falling, partial curve].

Which AC50 [1] does the source give for `CCN=c1sc(C(=O)NCCc2ccccc2)cc(=O)n1CC` here?
Its AC50 is 25.1 µM [rising, partial curve] [measured here: IkB-luc green channel].

For `Cc1cccc(C(=O)N2c3nc(-c4ccco4)nn3C3(CCCCC3)[C@@H]3CCCC[C@@H]32)c1`, which AC50 [1] is on record?
Its AC50 is 12.6 µM [falling, partial curve].

With `Cc1cccc(-n2ncc3c(N4CCCC(C)C4)ncnc32)c1` (centres undefined) as the compound, how does the AC50 [1] read?
The AC50 was 15.8 µM [falling, partial curve, poor fit].

For `C#CCOc1ccc(C2CC(=O)Nc3c2c(C)nn3-c2nc(C)cc(C)n2)cc1` (centres undefined), which AC50 [1] is on record?
The AC50 was 31.6 µM [falling, single point].

With `O=c1ccc(-c2ccccc2)nn1Cc1ccc(F)cc1Cl` as the compound, how does the AC50 [1] read?
The AC50 was 2.51 µM [falling, partial curve].

With `Cc1ccc(S(=O)(=O)c2c(C)nn(C(C)(C)C)c2OC(=O)c2ccco2)cc1` as the compound, how does the AC50 [1] read?
Its AC50 is 10 µM [falling, partial curve].

For `CCc1[nH]nc2c1C1(C(=O)N(Cc3ccccc3)c3ccccc31)C(C#N)=C(N)O2` (centres undefined), which AC50 [1] is on record?
Its AC50 is 15.8 µM [falling, partial curve].

For `CCCN1CCN(c2ncnc3sc(C(=O)Nc4c(C)cc(C)cc4C)c(C)c23)CC1`, which AC50 [1] is on record?
The AC50 was 0.316 µM [falling, full curve, poor fit].

For `CCC1CN(S(=O)(=O)c2cc(-c3onc(C)c3C)ccc2C)c2cc(Cl)ccc2O1` (centres undefined), which AC50 [1] is on record?
The AC50 was 1.58 µM [falling, full curve].

For `O=C(c1ccc2c(c1)OCCO2)C1CCN(C(=O)c2ccc(F)c(F)c2)CC1`, which AC50 [1] is on record?
Its AC50 is 31.6 µM [falling, single point].

For `N#Cc1ccsc1NC(=O)CSc1ncnc2ccccc12`, which AC50 [1] is on record?
Its AC50 is 20 µM [falling, single point].

For `COc1cc(NC(=O)C(CC(C)C)NS(=O)(=O)c2ccc3c(c2)CCN3C(C)=O)cc(OC)c1` (centres undefined), which AC50 [1] is on record?
Its AC50 is 20 µM [falling, single point].

Which AC50 [1] does the source give for `CC(C)c1ccc2oc(-c3ccc(NC(=O)c4cccc(Br)c4)cc3)nc2c1` here?
Its AC50 is 12.6 µM [falling, partial curve].

With `CCOc1ccc2nc(N3CCCC(C(=O)Nc4cc(Cl)c(OC)cc4OC)C3)sc2c1` (centres undefined) as the compound, how does the AC50 [1] read?
Its AC50 is 0.126 µM [falling, partial curve, poor fit].

Which AC50 [1] does the source give for `CCCCCCSc1nnc2c(n1)OC(C)Nc1ccc(Br)cc1-2` (centres undefined) here?
Its AC50 is 39.8 µM [falling, single point].

For `CCOC(=O)c1ccccc1NC(=O)COc1ccccc1-c1nnc(-c2ccccc2)o1`, which AC50 [1] is on record?
The AC50 was 2 µM [falling, full curve].

Which AC50 [1] does the source give for `COc1ccc(CNC(=O)c2ccc(NC(=O)N3CCSc4ccccc43)cc2)cc1` here?
Its AC50 is 25.1 µM [falling, single point].

Which AC50 [1] does the source give for `Cc1cc2c(=O)n(Cc3ccco3)c(SCC(=O)c3ccc(Cl)s3)nc2s1` here?
Its AC50 is 5.01 µM [falling, partial curve].

For `Nn1c(SCC(=O)Nc2ccc(F)cc2F)nnc1C1CCCCC1`, which AC50 [1] is on record?
The AC50 was 0.316 µM [falling, full curve].

For `CCC(C(=O)N1CCN(c2cc(C)ccc2C)CC1)n1nc(C)n2c(cc3occc32)c1=O` (centres undefined), which AC50 [1] is on record?
The AC50 was 25.1 µM [falling, single point].

For `Cc1nc2sc(C(c3ccco3)N3CCC(C)CC3)c(O)n2n1` (centres undefined), which AC50 (measured here: IkB-luc green channel) is on record?
Its AC50 is 15.8 µM [rising, partial curve].

What about the AC50 (measured here: control luc red channel) of the same compound?
The AC50 was 6.31 µM [falling, partial curve].
